Values of other authors, collected in US20100136125A1, “METHOD OF TREATING INFLAMMATORY BOWEL DISEASE” (Jacobus Pharmaceutical Company, Inc., priority 2006, published 2010).
At least one structure is not confirmed: it was looked up by name or label, or the drawing left a doubt.

Tested on: mild to moderate Crohn's disease
Conditions: 5-ASA 4 g daily; methylprednisolone 40 mg then tapering

C[C@H]1C[C@@H]2[C@H]([C@@H](O)C[C@@]3(C)[C@H]2CC[C@]3(O)C(=O)CO)[C@@]2(C)C=CC(=O)C=C12 [methylprednisolone]
remission rate at 3 weeks: 61%
